Source: patent publication US9120094B2, “Polymerization of bis[3-(diethoxyphosphoryl)propyl]diallylammonium chloride” (King Fahd University of Petroleum and Minerals, priority 2013, dated 2015)
Some entries share one result that the patent states for a list of compounds. At least one compound was matched to its structure with a doubt left.

Experiment: Antiscalant screening experiments based on visual inspection
Conditions: same conditions as PZA 7 test

C=CC[N+](CC=C)(CCCP(=O)(O)O)CCCP(=O)(O)O.[Cl-] [compound 11]
time until the system becomes cloudy (no effective inhibition): ≤ 1 h
